Test results published in US20260055096A1, “AZOLE PESTICIDAL COMPOUNDS” (BASF SE, priority 2022, published 2026).
Some of these results come from one statement about several compounds together.

Legend:
Format in all cases: in vivo
[1] = tested on: Orchid thrips (Dichromothrips corbetti); assay: Example B.2: Action on orchid thrips (Dichromothrips corbetti), floral-immersion technique; settings: 300 ppm; 72 hours after treatment
Experimental: Dichromothrips corbetti adults used for bioassay were obtained from a colony maintained continuously under laboratory conditions. For testing purposes, the test compound is diluted in a 1:1 mixture of acetone:water (vol:vol), plus Kinetic® HV at a rate of 0.01% v/v.
Thrips potency of each compound was evaluated by using a floral-immersion technique. All petals of individual, intact orchid flowers were dipped into treatment solution and allowed to dryin Petri dishes. Treated petals were placed into individual re-sealable plastic along with about 20 adult thrips. All test arenas were held under continuous light and a temperature of about 28° C. for duration of the assay. After 3 days, the numbers of live thrips were counted on each petal. The percent mortality was recorded 72 hours after treatment.

[2] = tested on: tobacco budworm (Heliothis virescens); assay: Example B.5: Action on tobacco budworm (Heliothis virescens), egg and larval mortality on insect diet; settings: 800 ppm; egg and larval mortality after 5 days
Experimental: For evaluating control of tobacco budworm (Heliothis virescens) the test unit consisted of 96-well-microtiter plates containing an insect diet and 15-25 H. virescens eggs.
The compounds were formulated using a solution containing 75% v/v water and 25% v/v DMSO. Different concentrations of formulated compounds were sprayed onto the insect diet at 10 μl, using a custom-built micro atomizer, at two replications.
After application, microtiter plates were incubated at about 28±1C and about 80±5% relative humidity for 5 days. Egg and larval mortality were then visually assessed.

[3] = tested on: Diamond back moth (Plutella xylostella); assay: Example B.8: Action on diamond back moth (Plutella xylostella), egg and larval mortality on insect diet in microtiter plates; settings: 800 ppm; egg and larval mortality after 5 days
Experimental: For evaluating control of diamond back moth (Plutella xylostella) the test unit consisted of 96-well-microtiter plates containing an insect diet and 15-25 P. xylostella eggs. The compounds or mixtures were formulated using a solution containing 75% water and 25% DMSO. Different concentrations of formulated compounds or mixtures were sprayed onto the insect diet at 5 μl, using a custom-built micro atomizer, at two replications. For experimental mixtures in these tests identical volumes of both mixing partners at the desired concentrations respectively, were mixed together. After application, microtiter plates were incubated at 28±1° C., 80±5% RH for 5 days. Egg and larval mortality was then visually assessed.

[4] = tested on: boll weevil (Anthonomus grandis); assay: Example B.3: Action on boll weevil (Anthonomus grandis), egg and larval mortality on insect diet; settings: 800 ppm; egg and larval mortality after 5 days
Experimental: For evaluating control of boll weevil (Anthonomus grandis) the test unit consisted of 96-well-microtiter plates containing an insect diet and 5-10 A. grandis eggs.
The compounds were formulated using a solution containing 75% (v/v) water and 25% (v/v) DMSO. Different concentrations of formulated compounds were sprayed onto the insect diet at […], using a custom-built micro atomizer, at two replications.
After application, microtiter plates were incubated at about 25±1C and about 75±5% relative humidity for 5 days. Egg and larval mortality were then visually assessed.

[5] = tested on: Southern armyworm (Spodoptera eridania), 2nd instar larvae; assay: Example B.7: Action on southern armyworm (Spodoptera eridania), 2nd instar larvae on sprayed lima bean plants; settings: 300 ppm; 4 days after treatment
Experimental: The active compounds were formulated by a Tecan liquid handler in 100% cyclohexanone as a 10,000-ppm solution supplied in tubes. The 10,000-ppm solution was serially diluted in 100% cyclohexanone to make interim solutions. These served as stock solutions for which final dilutions were made by the Tecan in 50% acetone:50% water (v/v) into 10 or 20 ml glass vials. A nonionic surfactant (Kinetic®) was included in the solution at a volume of 0.01% (v/v). The vials were then inserted into an automated electrostatic sprayer equipped with an atomizing nozzle for application to plants/insects.
Lima bean plants (variety Sieva) were grown 2 plants to a pot and selected for treatment at the 1st true leaf stage. Test solutions were sprayed onto the foliage by an automated electrostatic plant sprayer equipped with an atomizing spray nozzle. The plants were dried in the sprayer fume hood and then removed from the sprayer. Each pot was placed into perforated plastic bags with a zip closure. About 10 to 11 armyworm larvae were placed into the bag and the bags zipped closed. Test plants were maintained in a growth room at about 25° C. and about 20-40% relative humidity for 4 days, avoiding direct exposure to fluorescent light (24-hour photoperiod) to prevent trapping of heat inside the bags. Mortality and reduced feeding were assessed 4 days after treatment, compared to untreated control plants.

[6] = tested on: yellow fever mosquito (Aedes aegypti); settings: 800 ppm; larval mortality after 2 days
Experimental: For evaluating control of yellow fever mosquito (Aedes aegypti) the test unit consisted of 96-well-microtiter plates containing 200 μl of tap water per well and 5-15 freshly hatched A. aegypti larvae.
The active compounds or mixtures were formulated using a solution containing 75% (v/v) water and 25% (v/v) DMSO. Different concentrations of formulated compounds or mixtures were sprayed onto the insect diet at 2.5 μl, using a custom-built micro atomizer, at two replications.
For experimental mixtures in these tests identical volumes of both mixing partners at the desired concentrations respectively, were mixed together.
After application, microtiter plates were incubated at 28 #1° C., 80 #5% RH for 2 days. Larval mortality was then visually assessed.

SMILES | mortality in comparison with untreated controls [1] | mortality in comparison with untreated controls [2] | mortality in comparison with untreated controls [3] | mortality in comparison with untreated controls [4] | mortality in comparison with untreated controls [5] | mortality in comparison with untreated controls [6]
Cc1ccc(C(C)C)c(N2C(=O)CS/C2=N\C(=O)Nc2ccc(-c3nn(C)c(NC(=O)c4ccc(OC(F)(F)F)cc4)c3C)c(Br)c2)c1 [Example C-62] | at least 75% | at least 75% | at least 75% | at least 75% | at least 75% | 
Cc1ccc(C(C)C)c(N2C(=O)CS/C2=N\C(=O)Nc2ccc(-c3nn(C)c(NC(=O)c4ccc(OC(F)(F)F)cc4)c3C#N)c(C)c2)c1 [Example C-63] | at least 75% | at least 75% | at least 75% | at least 75% | at least 75% | at least 50%
Cc1ccc(C(C)C)c(N2C(=O)CS/C2=N\C(=O)Nc2ccc(-c3nn(C)c(NC(=O)c4ccc(OC(F)(F)F)cc4)c3C#N)cc2C)c1 [Example C-66] | at least 75% | at least 75% | at least 75% | at least 75% | at least 75% | at least 50%
Cc1ccc(C(C)C)c(N2C(=O)CSC2=NC(=O)Nc2ccc(-c3nn(C)c(N(Cc4ncccn4)C(=O)c4ccc(OC(F)(F)F)cc4)c3C)cc2Cl)c1 [Example C-68] | at least 75% | at least 75% | at least 75% | at least 75% | at least 75% | at least 50%
COc1ccc(C(=O)Nc2c(C)c(-c3ccc(NC(=O)N=C4SCC(=O)N4c4cc(C)ccc4C(C)C)c(Cl)c3)nn2C)cc1 [Example C-71] | at least 75% | at least 75% | at least 75% | at least 75% | at least 75% | at least 50%
Cc1ccc(C(C)C)c(N2C(=O)CSC2=NC(=O)Nc2ccc(-c3nn(C)c(NC(=O)c4ccc(OC(F)(F)F)cc4)c3C)cc2C#N)c1 [Example C-72] | at least 75% | at least 75% | at least 75% | at least 75% | at least 75% | at least 50%
Cc1ccc(COCC(F)(F)F)c(N2C(=O)CS/C2=N\C(=O)Nc2ccc(-c3nc(NC(=O)c4ccc(OC(F)(F)F)cc4)n(C)n3)cc2Cl)c1 [Example C-82] |  | at least 75% | at least 75% | at least 75% | at least 75% | at least 50%
Cc1ccc(C(C)C)c(N2C(=O)CSC2=NC(=O)Nc2ccc(-c3nn(C)c(NC(=O)c4ccc(Cl)cc4)c3C)cc2Cl)c1 [Example C-91] |  | at least 75% | at least 75% | at least 75% | at least 75% | at least 50%
Cc1ccc(C(C)C)c(N2C(=O)CSC2=NC(=O)Nc2ccc(-c3nn(C)c(NC(=O)c4ccc(C#N)cc4F)c3C)cc2Cl)c1 [Example C-95] |  | at least 75% | at least 75% | at least 75% | at least 75% | at least 50%
Cc1ccc(C(C)C)c(N2C(=O)CS/C2=N\C(=O)Nc2ccc(-c3nc(NC(=O)c4ccc(C#N)cc4F)n(C)n3)cc2Cl)c1 [Example C-107] |  | at least 75% | at least 75% | at least 75% | at least 75% | at least 50%
Cc1ccc(C(C)C)c(N2C(=O)CS/C2=N\C(=O)Nc2ccc(-c3nc(NC(=O)c4ccc(Cl)c(C#N)c4)n(C)n3)cc2Cl)c1 [Example C-110] | at least 75% | at least 75% | at least 75% | at least 75% | at least 75% | 
Cc1ccc(C(C)C)c(N2C(=O)CS/C2=N\C(=O)Nc2ccc(-c3nn(C)c(NC(=O)c4ccc(Br)cc4)c3C)cc2Cl)c1 [Example C-111] |  | at least 75% | at least 75% | at least 75% | at least 75% | at least 50%
CCN(C(=O)/N=C1\SCCN1c1cc(C)ccc1C(C)C)c1ccc(-c2nn(C)c(N(CC)C(=O)c3ccc(OC(F)(F)F)cc3)c2C)cc1C [Example C-122] |  | at least 75% | at least 75% | at least 75% | at least 75% | at least 50%
Cc1ccc(C(C)C)c(N2C(=O)CSC2=NC(=O)Nc2ccc(-c3nn(C)c(C(=O)Nc4ccc(OC(F)(F)F)cc4)c3C)cc2)c1 [Example C-127] |  | at least 75% | at least 75% | at least 75% | at least 75% | at least 50%
Cc1ccc(C(C)C)c(N2C(=O)CSC2=NC(=O)Nc2ccc(-c3nn(C)c(C(=O)Nc4ccc(OC(F)(F)F)cc4)c3C)cn2)c1 [Example C-128] |  | at least 75% | at least 75% | at least 75% | at least 75% | at least 50%
Cc1ccc(C(C)C)c(N2C(=O)CSC2=NC(=O)Nc2ccc(-c3nc(C(=O)Nc4ccc(OC(F)(F)F)cc4)n(C)n3)cn2)c1 [Example C-129] | at least 75% | at least 75% | at least 75% | at least 75% | at least 75% | 
